Patent US20250092103 (published 2025)

Assay: general procedure: Fmoc solid-phase peptide synthesis
Details: whole synthesis, linear ion trap LC/MS with electrospray ionization and amino acid analysis

PEPTIDE1{M.V.R.I.K.P.G.S.A.N.K.P.S.D.D}$$$$V2.0
final LC-MS purity: >95%

Some peptides are written in HELM: one residue between dots, names in brackets for other building blocks, links after the first $.
